# Source: PubChem BioAssay AID504467 (National Center for Advancing Translational Sciences (NCATS), 2011)
# The whole screen tested about 330,000 compounds, of which about 7,700 (2.3%) were called active. The shares of active, inactive and inconclusive entries below differ from those in the screen. The call rests on the fitted dose curve; in most records, active means well fitted inhibition curve with a large enough effect; inconclusive means small, poorly fitted or top-dose-only effect, or effect the other way; inactive means flat fitted curve, though single readings scatter. Potencies of inconclusive entries are doubtful fits and often do not repeat.
# Test: qHTS screen for small molecules that inhibit ELG1-dependent DNA repair in human embryonic kidney (HEK293T) cells expressing luciferase-tagged ELG1; further: nearly all actives have a fitted effect of over 55% in size
# Conditions: HEK293T ELG1-luciferase reporter, luminescence, 16 h, DNA damage induced by 5-fluorouridine; series mostly up to 46.1 µM
# Method in brief: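 Luminescence from the luciferase reporter, measured 30 min after ONE-Glo reagent at room temperature, was the read-out. Beforehand, 2,000 cells per well were exposed for 16 hr at 37 °C to 5-fluorouridine together with compound or vehicle.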
# Potency means the concentration at half of the fitted maximal effect.
row,SMILES,Potency
1,CCCCn1c(N)c(N(CCOC)C(=O)C2CCN(S(=O)(=O)c3ccc(C)cc3)CC2)c(=O)[nH]c1=O,"inconclusive: 7.3 µM [activator, partial curve, poor fit]"
2,CCOC(=O)N1CCC(N(CCCOC)C(=O)Nc2cccc(OC)c2)CC1,inactive
3,COc1ccccc1N(CC(=O)Nc1ccccc1)S(=O)(=O)c1cccs1,inactive
4,CC1(C)Cc2c(sc(/N=C/N3CCCC3)c2C#N)C(C)(C)N1,"inconclusive: 18.4 µM [activator, single point]"
5,Cc1nc(Sc2nnnn2C)c2c3c(sc2n1)CCC3,"inconclusive: 29.1 µM [inhibitor, single point]"
6,O=C(CNS(=O)(=O)c1ccccc1)N1CCc2ccccc2C1,"inconclusive: 16.4 µM [activator, partial curve]"
7,CCOc1ccc(-c2nnn(CC(=O)NCc3ccccc3)n2)cc1,"inconclusive: 23.1 µM [inhibitor, single point]"
8,Cc1cc(C)cc(-c2nnc(SCC(=O)NC3CC3)o2)c1,"inconclusive: 16.4 µM [activator, partial curve, poor fit]"
9,O=C1/C(=C/c2ccc(F)cc2)Oc2cc(OC(=O)N3CCOCC3)ccc21,inactive
10,C/C(=N\OCc1nc2ccccc2c(=O)n1/N=C/c1cc(C)cc([N+](=O)[O-])c1O)c1ccccc1,"inconclusive: 1.64 µM [inhibitor, partial curve, poor fit]"
11,COc1ccc(NC(=O)CCc2nnc3ccc(N4CCN(c5cccc(OC)c5)CC4)nn23)cc1,"inconclusive: 18.3 µM [inhibitor, single point]"
12,CC1CCN(C(=O)c2ccc(CSc3nc4ccncc4n3Cc3ccc(F)cc3)cc2)CC1,"inconclusive: 16.4 µM [inhibitor, partial curve, poor fit]"
13,CCCCCCSc1ccc([C@@H]2[C@H]3C(=O)N(C)C(=O)[C@H]3[C@]3(C(=O)OC)CCCCN23)cc1OC,"inconclusive: 35.5 µM [inhibitor, single point]"
14,CC1(C)OC(c2ccccc2)=C/C(=C/C=Nc2ccccc2)O1,"inconclusive: 9.2 µM [inhibitor, partial curve, poor fit]"
15,COc1ccc(OCc2n[nH]c(=S)n2-c2ccc(C)cc2)cc1,inactive
16,COC(=O)[C@@]1(Cc2ccccc2)[C@H]2C(=O)N(C)C(=O)[C@H]2[C@H]2CN=C(SCC3CC3)N21,inactive
17,COc1ccc(C2CC(c3ccccc3)=NN2C(=O)COC(=O)CNC(=O)c2ccccc2)cc1 (centres undefined),"inconclusive: 20.6 µM [activator, partial curve, poor fit]"
18,Cc1cccc(N=C2NN=C(c3c(C)[nH]c4ccccc34)CS2)c1,"inconclusive: 29.1 µM [inhibitor, single point]"
19,O=C(NCc1ccccc1)c1n[nH]nc1-c1ccccc1O,"inconclusive: 18.4 µM [activator, single point]"
20,COc1ccc(/C=C2/SC(=S)N(CCCC(=O)Nc3ccccc3C(=O)O)C2=O)cc1,inactive
21,O=C(CC(=O)N/N=C/c1ccccc1O)NCc1cccnc1,"inconclusive: 16.4 µM [inhibitor, partial curve, poor fit]"
22,CCN(CC)c1nc(-c2ccc(Cl)cc2)cc(C(F)(F)F)c1C#N,inactive

# 3 structures already listed, arranged by molecular weight, ascending.
row,SMILES,Potency
20,COc1ccc(/C=C2/SC(=S)N(CCCC(=O)Nc3ccccc3C(=O)O)C2=O)cc1,inactive
11,COc1ccc(NC(=O)CCc2nnc3ccc(N4CCN(c5cccc(OC)c5)CC4)nn23)cc1,"inconclusive: 18.3 µM [inhibitor, single point]"
13,CCCCCCSc1ccc([C@@H]2[C@H]3C(=O)N(C)C(=O)[C@H]3[C@]3(C(=O)OC)CCCCN23)cc1OC,"inconclusive: 35.5 µM [inhibitor, single point]"

# Next results follow.

row,SMILES,Potency
1,COc1ccc(CC(=O)Nc2cc3oc4ccccc4c3cc2OC)cc1,"inconclusive: 13 µM [activator, partial curve]"
2,CSc1nc(-c2ccccc2)cc(C)c1C#N,"inconclusive: 32.6 µM [activator, partial curve, poor fit]"
3,COc1ccccc1Nc1nc(N)nc(CSc2ncccn2)n1,"inconclusive: 7.31 µM [activator, single point]"
4,CCOc1ccccc1CN1CCNC(=O)C1CC(=O)N(C)CCc1ccccn1 (centres undefined),"inconclusive: 20.6 µM [activator, single point]"
5,CCc1ccc(CNC(=O)c2cc3c(C)nc4ccccc4c3o2)cc1,active: 14.6 µM
6,CC1CCCN(C(=O)Cn2nnc(-c3ccccc3F)n2)C1 (centres undefined),"inconclusive: 16.4 µM [activator, partial curve]"
7,CNc1ccccc1-n1ccc(-c2ccccc2)n1,"inconclusive: 18.4 µM [activator, partial curve]"
8,C=CCOCCN(C)C1=NS(=O)(=O)c2cc([N+](=O)[O-])ccc21,"inconclusive: 8.2 µM [inhibitor, partial curve, poor fit]"
9,COc1ccc(S(=O)(=O)NCc2ccco2)cc1N(C)S(=O)(=O)c1ccccc1,"inconclusive: 23.1 µM [inhibitor, partial curve, poor fit]"
10,OC1CCCCC1Sc1nc2ccccc2s1 (centres undefined),"inconclusive: 20.6 µM [activator, partial curve]"
11,COCc1c(C#N)c(NCCc2ccc(F)cc2)nc(C)c1[N+](=O)[O-],"inconclusive: 32.6 µM [inhibitor, single point]"
12,COc1ccc(CCNC(=O)C2CCN(C(=O)c3ccc(OC)c(OC)c3)CC2)cc1,inactive
13,COc1ccc(C2Nc3ccccc3C(=O)N2c2ccc(C)cc2)cc1Cn1nc(C)c([N+](=O)[O-])c1C (centres undefined),"inconclusive: 18.4 µM [activator, partial curve]"
14,O=C1C[C@@H]2c3c(cccc3CN1Cc1ccc(F)cc1)C[C@@H](O)[C@H]2O,inactive
15,COc1cc(C(=O)OC(C)C(=O)Nc2ccc3c(c2)OCO3)ccc1OCc1c(C)noc1C (centres undefined),"inconclusive: 20.6 µM [inhibitor, partial curve]"
16,Cn1c(=O)c2c(nc(OCc3cccnc3)n2Cc2ccccc2)n(C)c1=O,"inconclusive: 5.8 µM [inhibitor, full curve]"
17,Cc1noc(C)c1C(=O)OCC(=O)NCCc1ccc(S(N)(=O)=O)cc1,"inconclusive: 23.1 µM [activator, partial curve, poor fit]"
18,Cc1ccc(N/N=C/c2cccnc2)cc1,"inconclusive: 20.6 µM [activator, partial curve]"
19,CCN(C[C@H]1N[C@@](Cc2ccccc2)(C(=O)OC)[C@H]2C(=O)N(Cc3ccccc3)C(=O)[C@@H]12)S(=O)(=O)c1ccc(C(F)(F)F)cc1,inactive
20,CCN(Cc1nc2ccccc2c(=O)[nH]1)C(=O)c1cccc(NC(=O)c2cccs2)c1,"inconclusive: 29.1 µM [inhibitor, single point]"
21,Cc1ccc(Oc2cc(-n3nc(C)cc3C)ncn2)cc1,"inconclusive: 20.6 µM [activator, single point]"
22,COc1ccc(N(CC(=O)N2CCC(Cc3ccccc3)CC2)S(C)(=O)=O)cc1,"inconclusive: 25.9 µM [inhibitor, single point]"

row,SMILES,Potency
1,COc1ccc(NC(=O)CN2CCN(c3ccccn3)CC2)cc1Cl,"inconclusive: 20.6 µM [inhibitor, single point]"
2,Cc1ccnc(NC(=O)CSc2ccc3c(c2)OCCO3)c1,"inconclusive: 5.8 µM [activator, partial curve]"
3,O=[N+]([O-])c1cccc(-n2cc3ccc([N+](=O)[O-])cc3n2)c1,"inconclusive: 9.2 µM [activator, partial curve]"
4,CCNC(=O)CC1C(=O)N(c2cccc(OC)c2)C(=O)N1CCOC (centres undefined),"inconclusive: 29.1 µM [activator, single point]"
5,S=c1nc2ccccc2c2nc(-c3ccccc3Cl)[nH]n12,"inconclusive: 2.59 µM [activator, full curve]"
6,CCN(CC(=O)N(CC(C)C)c1c(N)n(CC(C)C)c(=O)[nH]c1=O)Cc1nc2ccccc2c(=O)[nH]1,inactive
7,CC(OC(=O)c1cccc(-n2cnnn2)c1)C(=O)N(C)c1ccccc1 (centres undefined),inactive
8,O=C(Nc1cccc(NC(=O)c2ccccc2Cl)c1)c1ccc([N+](=O)[O-])o1,active: 23.1 µM
9,Cc1ccc(-c2noc(C3CCCN(C(=O)c4cccc(Cl)c4)C3)n2)o1 (centres undefined),"inconclusive: 10.3 µM [activator, partial curve]"
10,O=C1NCCCC2c3cc(O)c4ccccc4c3OC12N1CCCCC1 (centres undefined),"inconclusive: 14.6 µM [inhibitor, partial curve]"
11,CCOC(=O)c1c(C)oc2cc(Cl)c(O)c(CN(C)C)c12,"inconclusive: 16.4 µM [activator, partial curve]"
12,COc1ccc(Nc2oc(COc3cccc(C)c3)nc2C#N)cc1,"inconclusive: 3.26 µM [activator, single point]"
13,CCn1c(SCC(=O)NCc2ccccc2)nc2nc3c(cc2c1=O)CCCC3,"inconclusive: 23.1 µM [inhibitor, single point]"
14,Cc1cc(NC(=O)NC(=O)c2ccccc2F)no1,"inconclusive: 16.4 µM [activator, partial curve]"
15,CN1CCN(C(=O)/C=C/c2ccc([N+](=O)[O-])o2)CC1,inactive
16,COc1ccc(N2CCN(Cc3cc(=O)oc4cc(-c5ccccc5)c(O)cc34)CC2)cc1,inactive
17,Cc1ccc(NC(=O)CN2CCC(C(=O)c3ccc(F)cc3)CC2)cc1,"inconclusive: 29.1 µM [inhibitor, single point]"
18,CC1CCc2c(sc3ncnc(SCC(=O)c4ccccc4)c23)C1 (centres undefined),"inconclusive: 20.6 µM [activator, single point]"
19,CC(=O)Nc1cccc(C(=O)/C=C/c2ccc(Br)cc2)c1,"inconclusive: 29.1 µM [inhibitor, single point]"
20,O=[N+]([O-])c1ccc(Cl)c(/C=N/NC(=S)Nc2ccccc2)c1,"inconclusive: 29.1 µM [activator, partial curve, poor fit]"
